{
  "sequences": {"note": "By UniProt entry, the sequences of proteins in these tests, tags left out.", "UniProt Q0JBA9, entry or part of it": "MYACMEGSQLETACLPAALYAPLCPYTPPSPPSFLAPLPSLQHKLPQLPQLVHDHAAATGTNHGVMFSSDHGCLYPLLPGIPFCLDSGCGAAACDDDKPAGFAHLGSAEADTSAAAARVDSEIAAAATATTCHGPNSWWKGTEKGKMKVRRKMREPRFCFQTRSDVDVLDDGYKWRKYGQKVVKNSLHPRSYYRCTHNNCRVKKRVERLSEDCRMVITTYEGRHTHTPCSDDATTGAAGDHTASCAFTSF"},
  "source": "paper PMC7819943",
  "about": "“Rice protein-binding microarrays: a tool to detect cis-acting elements near promoter regions in rice”",
  "note": "Some of the results follow.",
  "data": [
    {"molecular_target": "OsWRKY34 (Oryza sativa, UniProt Q0JBA9 1-250)", "assay": "protein-binding microarray (RPBM); PBS, 2% BSA, 51.3 ng/ul salmon testes DNA, 50 uM zinc acetate, 200 nM TF, 25 C, 1 h; high values mean tight binding", "conditions": "protein: recombinant; tags: N-terminal polyhistidine and DsRed monomer fusion (pET32a); label: CyDye5-dUTP incorporated in the synthesized complementary strand; 3' TTTTT single-stranded linker to array surface; dsDNA, one strand shown", "outline": "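Using Ni–NTA, transcription factors fused N-terminally to polyhistidine and DsRed were purified after expression in E. coli BL21-CodonPlus. These were incubated at 200 nM with a blocked, double-stranded custom Agilent array for 1 h at 25 °C in a buffer containing 50 µM zinc acetate, and the array was washed. The binding signal is per-feature fluorescence intensity (arbitrary units) on an Axon 4000B scanner.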", "values": [
      {"sequence": "GCAGGTTAGGTCGCGGCAGGTGGTGGTGGTAGGAAGAAGACGGAGTCACCTAGTGCAG", "binding signal": "8360 fluorescence intensity (a.u.)"},
      {"sequence": "TTATTCATTTTCTTTATATTGTTATTTTCCTTTTTGTGTTCGGAGTCACCTAGTGCAG", "binding signal": "8050 fluorescence intensity (a.u.)"},
      {"sequence": "TTTGTTCCAAATTGTAGACTTGTTTTGCGCTTCGTTTTGTCGGAGTCACCTAGTGCAG", "binding signal": "10100 fluorescence intensity (a.u.)"},
      {"sequence": "GCAGTAGAATAAAATTTTCACCTCTGGTTTTTATAATCCACGGAGTCACCTAGTGCAG", "binding signal": "8720 fluorescence intensity (a.u.)"},
      {"sequence": "GGGTCTTTTGGGTTGGAGTGGAGCTGTGGAGCAACAAAAACGGAGTCACCTAGTGCAG", "binding signal": "10200 fluorescence intensity (a.u.)"},
      {"sequence": "TTCCCATACGCGTCCCACCCGCCGCCGCCCTCGTCTCCGCCGGAGTCACCTAGTGCAG", "binding signal": "8800 fluorescence intensity (a.u.)"},
      {"sequence": "ACTTGAGAGACACATTGTATTTCCATTGGTATATTGTCTCCGGAGTCACCTAGTGCAG", "binding signal": "8610 fluorescence intensity (a.u.)"},
      {"sequence": "GGTCTGCCTATAAATACCAGCCATTTCCTCATCGTTCCTCCGGAGTCACCTAGTGCAG", "binding signal": "8060 fluorescence intensity (a.u.)"},
      {"sequence": "TCCACATCATTTCCACGGCCCCTATTGTCCGCTTGCTCTCCGGAGTCACCTAGTGCAG", "binding signal": "9110 fluorescence intensity (a.u.)"},
      {"sequence": "ACCTCGCGTCGCTCGCGGCGCCTTCCCGCGCCGCCCACCCCGGAGTCACCTAGTGCAG", "binding signal": "10100 fluorescence intensity (a.u.)"},
      {"sequence": "AATTACTACTCCTAGGTTAATTCATTTTTTCTTTTTCTAACGGAGTCACCTAGTGCAG", "binding signal": "8630 fluorescence intensity (a.u.)"},
      {"sequence": "CTTATATGGGTAGGGCGTGCGCGCGTGTGATTATAGGGGTCGGAGTCACCTAGTGCAG", "binding signal": "8620 fluorescence intensity (a.u.)"},
      {"sequence": "TAACCCACGGCAGCGACCTATCATTCCGTCAAGGGCTCGCCGGAGTCACCTAGTGCAG", "binding signal": "8250 fluorescence intensity (a.u.)"},
      {"sequence": "TTTGCGCTCTCCGGTTGATCAGCTCCAATTTCTCAACTTCCGGAGTCACCTAGTGCAG", "binding signal": "9170 fluorescence intensity (a.u.)"},
      {"sequence": "CTCTCTCTCGTCCTCTTCTATGGCAAGCTTGGACTGTAGACGGAGTCACCTAGTGCAG", "binding signal": "8970 fluorescence intensity (a.u.)"},
      {"sequence": "TATATATATATATATATATATATATATATATATGTGTGTGCGGAGTCACCTAGTGCAG", "binding signal": "18100 fluorescence intensity (a.u.)"},
      {"sequence": "GACCATGTTGCCCTTGCCAGATTCGACCTTATCCGCTTTCCGGAGTCACCTAGTGCAG", "binding signal": "10500 fluorescence intensity (a.u.)"},
      {"sequence": "TTCTCTTTCTGTGTATCGTATGCTTCGCACTTTCTACTTTCGGAGTCACCTAGTGCAG", "binding signal": "8960 fluorescence intensity (a.u.)"},
      {"sequence": "TGCGTGTATCCCATTCCCACCCGCCCACCACATATCCTTTCGGAGTCACCTAGTGCAG", "binding signal": "11000 fluorescence intensity (a.u.)"},
      {"sequence": "AACAGGAGACTGGCTACTTACTTGCGCTTCTCCATTTCTGCGGAGTCACCTAGTGCAG", "binding signal": "8670 fluorescence intensity (a.u.)"},
      {"sequence": "TATACTCTACTATCCATCATCGCCGTTGTGCACAGGGATCCGGAGTCACCTAGTGCAG", "binding signal": "8320 fluorescence intensity (a.u.)"},
      {"sequence": "ATAAAAATTAAGGGTGGGCTTAAAGTCGAAGTCAACAAGACGGAGTCACCTAGTGCAG", "binding signal": "10000 fluorescence intensity (a.u.)"},
      {"sequence": "GACACATACCTAACAAACTGTGACAGCCACAAGTATGATGCGGAGTCACCTAGTGCAG", "binding signal": "8210 fluorescence intensity (a.u.)"},
      {"sequence": "TGTCATCAAATTGGCATTCATAGCGCTATGTTCATATGTTCGGAGTCACCTAGTGCAG", "binding signal": "8430 fluorescence intensity (a.u.)"},
      {"sequence": "TCGCTCTGGCGGCCAGCATCTGAGTAGAATATTCTTCCTTCGGAGTCACCTAGTGCAG", "binding signal": "8280 fluorescence intensity (a.u.)"},
      {"sequence": "GCCGCCGCATGCCACCTCCTCGCCGCCCGTCGCGTCAACGCGGAGTCACCTAGTGCAG", "binding signal": "9610 fluorescence intensity (a.u.)"},
      {"sequence": "TGCTTTTGCTCATGTTTATTGGTGGAATGGACGGTACTCTCGGAGTCACCTAGTGCAG", "binding signal": "10600 fluorescence intensity (a.u.)"},
      {"sequence": "ATTGTATTTTTCAACTTCGTGAATTCAGCTATGGTTCAAACGGAGTCACCTAGTGCAG", "binding signal": "8490 fluorescence intensity (a.u.)"},
      {"sequence": "TACCTCTCTTTTATTGTCTCCTGTAAAGTTTTATTTATATCGGAGTCACCTAGTGCAG", "binding signal": "13600 fluorescence intensity (a.u.)"},
      {"sequence": "CCGCCGCCGCCGCCGCCACCGTCCTGCTGCTTCCGCCGCCCGGAGTCACCTAGTGCAG", "binding signal": "11200 fluorescence intensity (a.u.)"},
      {"sequence": "GCTCACTCCATCCCTCAACTGCCCAGTTTCCACGACTCGCCGGAGTCACCTAGTGCAG", "binding signal": "9600 fluorescence intensity (a.u.)"},
      {"sequence": "ACCGTCGTCCTCTGCACAAGCCGCCGCGTCCACCCTCTCCCGGAGTCACCTAGTGCAG", "binding signal": "9550 fluorescence intensity (a.u.)"},
      {"sequence": "GCGCAACCACCGCTCTCCTTTCTTTTTTTTTTCCTTCTCTCGGAGTCACCTAGTGCAG", "binding signal": "8730 fluorescence intensity (a.u.)"},
      {"sequence": "TTGTATTCGATAATATTCGATTCCGTTTTCGTATCCGGGTCGGAGTCACCTAGTGCAG", "binding signal": "9390 fluorescence intensity (a.u.)"},
      {"sequence": "CGTTTCACCTGTGTCAATTTTCACTTCACCTTCACTGTCTCGGAGTCACCTAGTGCAG", "binding signal": "8540 fluorescence intensity (a.u.)"},
      {"sequence": "TGGGGAGAGTGTGTGCGTGTGTGTGTGTGATTCTCCAATGCGGAGTCACCTAGTGCAG", "binding signal": "8870 fluorescence intensity (a.u.)"},
      {"sequence": "GAGACATTGTATCACCGGTCTTGCACTAGCGGAACTTCCGCGGAGTCACCTAGTGCAG", "binding signal": "8470 fluorescence intensity (a.u.)"},
      {"sequence": "ATGTCGCCAAGCTCCTTCGCCGCCGTCGCTTGCTACTTCCCGGAGTCACCTAGTGCAG", "binding signal": "10400 fluorescence intensity (a.u.)"},
      {"sequence": "CATTTTTTTCCTGCAGGCTCATGAATCCGTGGTCCTGGAGCGGAGTCACCTAGTGCAG", "binding signal": "9090 fluorescence intensity (a.u.)"},
      {"sequence": "TTTTCTTTTTTGGAGTCTATTCCGGTTTAGTTAGTCCCTTCGGAGTCACCTAGTGCAG", "binding signal": "8510 fluorescence intensity (a.u.)"},
      {"sequence": "GCTTCTTCCGTTGCAATTCCATTCTCCTCTCTCTCCTGCTCGGAGTCACCTAGTGCAG", "binding signal": "11400 fluorescence intensity (a.u.)"},
      {"sequence": "ACGGTGGCGGGGATGTGGAGGGAGGTGCAGGGGTGCGGGGCGGAGTCACCTAGTGCAG", "binding signal": "22600 fluorescence intensity (a.u.)"}
    ]}
  ]
}
